Assay results from PMC10214260.
These are yes or no findings as the source states them, for the method shown. In cells and extracts the contact can be indirect. Some entries that bind do so weakly or less than the wild type.

Sequences of proteins named here, by UniProt entry; tags and fusion partners are left off.
UniProt P30536: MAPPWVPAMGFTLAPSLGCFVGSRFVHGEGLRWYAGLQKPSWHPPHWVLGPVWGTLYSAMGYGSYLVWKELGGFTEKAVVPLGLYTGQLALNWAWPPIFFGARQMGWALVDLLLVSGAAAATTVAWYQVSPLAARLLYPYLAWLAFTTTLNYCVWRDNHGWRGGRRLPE

What was measured:
[1] = target: TSPO (as used in the GST pull-down) (UniProt P30536); assay: pull-down; GST pull-down 'in vitro' (Figure 4E); which partner carried GST is not told
[2] = target: translocator protein (TSPO), 18 kDa, mitochondrial (human (endogenous in HCCLM3 and MHCC97H)) (UniProt P30536); assay: co-IP; Co-IP of TSPO and P62 'in vivo' (Figure 4D); cells and antibodies not told in the text shown

Row | Substance | binding [1] | binding [2]
1 | P62 (as used in the GST pull-down) (from UniProt Q13501 1-440) | binds | –
2 | P62 (from UniProt Q13501 1-440) | – | binds
